The experiment is described as follows: qHTS Assay for Lipid Storage Modulators in Drosophila S3 Cells.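 On cell number change: cells counted by Cell Tracker Red CMTPX staining in the red channel.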 Particulars: BODIPY lipid droplet fluorescence, 18-24 h; for cell number change: measured here: cell count max response, cells fed with added oleic acid. The text has this:
NIH Molecular Libraries Probe Production Centers Network [MLPCN] NIH Chemical Genomics Center [NCGC] MLPCN Grant: 1 R03 MH085686-01 Assay Submitter (PI): Beller, Mathias; Max-Planck-Institut fur Biophysikalische Chemie NCGC Assay Overview: Storing lipids as a reservoir for energy or the anabolism of elementary metabolites is a common feature of probably all cells and is conserved from bacteria to humans. The universal cellular lipid storage organelle is the so-called lipid storage droplet (LD). Although ubiquitous, LDs share a simple structure composed of a hydrophobic core that harbors the storage lipids, which is shielded by a droplet-specific phospholipid monolayer to which proteins are attached. The current model of LD biogenesis involves an incorporation of the lipid core into the membrane leaflets of the endoplasmic reticulum (ER) followed by a subsequent budding-like maturation of a LD, which ultimately pinches off. Once released, LD volume can increase by localized lipogenesis or fusion of existing droplet. Storage lipids are re-mobilized enzymatically by lipase activity. Lipase regulation in the adipocyte is heavily studied and involves multiple components including catecholamine signaling, the LD-associated proteins Perilipin and comparative gene identification (CGI-58) and at least two lipases named hormone sensitive lipase (HSL) and adipocyte triglyceride lipase (ATGL). LD regulation outside of the adipocyte is poorly understood and only few components are known. However, there is an urgent need to learn more about ectopic fat depots as mislocalized storage of lipids, for example in the liver or muscle, is an eminent health problem associated with insulin resistance or the metabolic syndrome. We developed a laser-scanning cytometer assay to enable 1,536-well screening and combined the results of the small molecules screen with an RNAi database based on lipid storage.
Triacsin C (Sigma-Aldrich T-4540), an inhibitor of long-chain fatty acyl CoA synthetase that blocks synthesis of triglycerides, was used as a positive control for lipid under-storage. A total of 23 nL of compound solution of different concentrations were transferred to the assay plates using a Kalypsys pin tool equipped with a 1,536-pin array containing 10-nL slotted pins (FP1S10, 0.457-mm diameter, 50.8 mm long; V&P Scientific). One microliter of oleic acid (400 uM) was added, and the plate was lidded with stainless steel rubber gasket lined lids containing pinholes. […] Fluorescence was detected by excitation of the fluorophores with a 488-nm laser on an Acumen Explorer (TTP Lab Tech). The total intensity in channel 2 (500-530 nm) reflected lipid droplet accumulation. Cells were detected using channel 3 (575-640 nm) with 5-um width and 100-um depth filters. The ratio of the number of objects in PMT channel 2 over the number of objects in PMT channel 3 was also calculated. Percent activity was computed relative to an internal control (100% inhibited lipid droplet deposition due to the presence of 20 uM Triacsin C), which was added to 32 wells/plate.

Where [1] appears, read: measured here: cell number channel AC50, cells fed with added oleic acid.
Setting [2] is: measured here: lipid fluorescence (Fed channel) AC50, cells fed with added oleic acid.

This is one part of the list. Shown are side measurements of this screen, not its main read-out; they come without a call. Most of these compounds were active or inconclusive in the main read-out, so they are no random draw. Words in brackets tell the shape of the fitted curve; partial curves, single points and poor fits give uncertain potencies.

For `COc1ccc(N/C=C/C(=O)c2ccc3c(c2)OCO3)cc1OC`, the cell number change amounted to 34.5%. Besides, the AC50 under setting [1] is 2060 nM [rising, partial curve]. The half-maximal activity concentration (AC50) under setting [2] is 184 nM [rising, full curve].

Consider `CC(C)c1csc(CN2CCC(CO)(Cc3cccc(F)c3)CC2)n1`, for which the cell number change turned out to be 2.31%. For the same compound, under setting [2], the AC50 was 18400 nM [falling, single point].

Take `Cc1cccc(C(=O)OCC(=O)N2CCC(c3ccccc3)=N2)c1O`: the cell number change came out at 11.5%. In addition, the AC50 under setting [2] is 1160 nM [rising, full curve, poor fit].

For `COc1ccc(N(C(=O)c2cnccn2)C(C(=O)NC2CCCCC2)c2ccccc2)cc1` (stereo unspecified), the cell number change worked out at 0.435%. The half-maximal activity concentration (AC50) under setting [2] was 6510 nM [rising, partial curve, poor fit].

For `COc1cccc(NC(=O)NCCC2=CCCCC2)c1`, the cell number change is -9.49%. Also, under setting [1], the AC50 is 146 nM [falling, full curve, poor fit]. In addition, the AC50 under setting [2] is 103 nM [falling, full curve, poor fit].

In the case of `Cc1nc(SCC(=O)NCC2CCCO2)c2cc(-c3ccccc3)sc2n1` (stereo unspecified), the cell number change is -43.2%. Besides, the concentration at half-maximal activity (AC50) under setting [1] is 16400 nM [falling, single point].

As for `Cc1c(C(=O)Nc2ccc(Cl)cc2)c2ccccn2c1C(=O)c1ccc([N+](=O)[O-])cc1`, the cell number change was found to be 22.9%. The AC50 under setting [2] was 29100 nM [falling, single point].

For `CCc1ccc2[nH]c(=O)c(C(c3nnnn3Cc3ccc(OC)cc3)N3CCOCC3)cc2c1` (stereo unspecified), the cell number change was -5.17%. Moreover, the AC50 under setting [2] was 206 nM [rising, partial curve, poor fit].

`COc1ccccc1NS(=O)(=O)c1cc(NC(=O)c2ccc3ccccc3n2)ccc1Cl`: the cell number change was determined as 5.25%. In addition, the AC50 under setting [2] is 517 nM [rising, partial curve].

`CC(C)(C)NC(=O)CSc1nnc(NC(=O)CCc2ccccc2)s1`: the cell number change was -6.74%. Further, the half-maximal activity concentration (AC50) under setting [2] is 14600 nM [falling, partial curve, poor fit].

As to `Cc1ccc(S(=O)(=O)CCc2nc3ccccc3s2)cc1C`, under setting [2], the AC50 is 6510 nM [falling, single point].

Turning to `CCOc1cc(NC(=O)Nc2ccc(F)cc2)c(OCC)cc1NC(=O)CC`, the cell number change was 13.5%. The AC50 under setting [2] was 103 nM [rising, full curve, poor fit].

Take `CCOc1cc(C(=O)Nc2cc(OC)cc(OC)c2)ccc1OCC(=O)N1CCOCC1`: the cell number change was 33%.

On to `Cc1onc(C(=O)Nc2ccccc2C(F)(F)F)c1[N+](=O)[O-]`, for which the cell number change came out at 20.8%. Moreover, the AC50 under setting [2] was 29100 nM [falling, single point].

Turning to `CCN(CC)c1ccc2cc(-c3nc4ccccc4n3C)c(=O)oc2c1`, the cell number change was -32.9%. In addition, the concentration at half-maximal activity (AC50) under setting [1] is 2310 nM [falling, partial curve]. Moreover, the AC50 under setting [2] was 2310 nM [falling, partial curve].

As for `Brc1ccc(CSc2ccc3nnc(-c4ccccn4)n3n2)cc1`, the cell number change is -22.1%. Under setting [2], the AC50 was 14600 nM [falling, single point].

On to `Cc1cc(C(=O)COc2ccc(C#N)cc2)c(C)n1C1CC1`, for which the cell number change turned out to be 59.6%. For the same compound, under setting [1], the half-maximal activity concentration (AC50) is 16400 nM [rising, partial curve]. The AC50 under setting [2] was 1640 nM [rising, partial curve].

In the case of `Cc1c(C(=O)N2CCc3ccccc32)oc2ccccc12`, the cell number change is 12.7%.

In the case of `O=C(CSc1ncccn1)N1CCN(C(c2ccccc2)c2ccccc2)CC1`, the cell number change was -9.28%. Besides, under setting [1], the AC50 is 461 nM [rising, single point].

Regarding `Cc1ccccc1-n1c(SCC(=O)N/N=C/c2sccc2C)nc2ccccc2c1=O`, the cell number change is -31.9%. In addition, under setting [1], the AC50 is 29100 nM [falling, single point].

On to `CCOC(=O)c1ccc(N2C(=O)CC(Sc3nc(O)c(CC)c(=O)[nH]3)C2=O)cc1` (stereo unspecified), for which the cell number change came to 3.7%.

As for `CS(=O)(=O)N1N=C(c2ccccc2)CC1c1ccc2c(c1)OCO2` (stereo unspecified), the cell number change was -11.1%. The AC50 under setting [2] was 20600 nM [falling, partial curve].

`COc1cc([N+](=O)[O-])cc(/C=C2/SC(=S)N(Cc3ccccc3)C2=O)c1O`: the cell number change was -77.8%. Besides, under setting [1], the AC50 was 2910 nM [falling, full curve]. Besides, the AC50 under setting [2] is 1840 nM [falling, partial curve].

Turning to `CC(CCN1CCN=C1N(C)C)c1ccccc1` (stereo unspecified), the cell number change was -9.73%. The half-maximal activity concentration (AC50) under setting [2] is 206 nM [rising, full curve, poor fit].

Regarding `CC(=O)Nc1ccc(NC(=O)c2sc3nc4n(c(=O)c3c2C)CCCCC4)cc1`, the cell number change was found to be 35%. The AC50 under setting [1] is 580 nM [rising, partial curve]. For the same compound, the AC50 under setting [2] was 65.1 nM [falling, full curve, poor fit].

For the compound `CCOC(=O)N/N=C/c1cccc(Cl)c1Cl`, the cell number change is 26.6%. Further, the AC50 under setting [2] was 1160 nM [rising, full curve].

For the compound `COc1cc(OC)cc(C(=O)Nc2ccccc2N2CCOCC2)c1`, the cell number change stood at 0.84%. For the same compound, the AC50 under setting [2] is 206 nM [rising, full curve, poor fit].

Take `CCOc1ccc(NC(=O)Cc2ccc(NC3=NC4CS(=O)(=O)CC4S3)cc2)cc1` (stereo unspecified): the cell number change stood at 30.8%. For the same compound, the AC50 under setting [2] is 2310 nM [rising, single point].

With `NNC(=O)CN1C(c2ccc(Cl)cc2)=Nc2ccc(Br)cc2C1c1ccccc1` (stereo unspecified), the cell number change was -3.03%.

For the compound `COC(=O)c1ccc(NC(=O)c2cc(Cl)ccc2OC)cc1`, the cell number change turned out to be 28.6%. Also, under setting [1], the AC50 was 4610 nM [rising, partial curve].

The values above are taken from PubChem BioAssay AID2685 (National Center for Advancing Translational Sciences (NCATS), 2010).
